Some peptides are written in HELM: one residue between dots, names in brackets for other building blocks, links after the first $.

A short description of one series: general procedure: solution-phase peptide synthesis; isobutyl chlorocarbonate/NMM (mixed anhydride); PyroGlu-OTcp and BOC-Gln-ONp act. The settings on record: coupling step, acetate.
On to “BOC (Gln-Ala-Lys(BOC)-Ser(But)-Gln-Gly-Gly-Ser(But)-Asn OBut”, for which the step yield worked out at 78%.

With “PyroGlu-Ala-Lys(BOC)-Ser(But)-Gln(Mbh)-Gly-Gly-Ser(But)-Asn-OBut”, the step yield was 70%.

With “PyroGlu-Ala-Lys(BOC)-Ser(But)-Gln-Gly-Gly-Ser(But)-Asp-di.OBut”, the step yield worked out at 65%.

The substance “PyroGlu-D.Ala-Lys(BOC)-Ser(But)-Gln(Mbh)-Gly-Gly-Ser(But)-Asn.OBut” came in with a step yield of 70%.

“PyroGlu-Lys(BOC)-Ser(But)-Gln-Gly-Gly-Ser(But)-Asn OBut” yielded a step yield of 57%.

Turning to “PyroGlu-Lys(BOC)-Ser(But)-Gln-Gly-Gly-Ser(But).OBut”, the step yield amounted to 70%.

As to “Z-Ala-Lys(BOC)-Ser(But)-Gln-Gly Gly-Ser(But)-Asp-di.OBut”, the step yield came to 75%.

“Z-Ala-Lys(BOC)-Ser(But)-Gln-Gly-Gly-Ser(But)-Asn OBut”: the step yield is reported as 64%.

Z.Ala-Lys(BOC)-Ser(But)-Gln-Gly-Gly.OMe yielded a step yield of 80%.

With “Z.D-Ala-Lys(BOC)-Ser(But) Gln(Mbh)-Gly-Gly-Ser(But)-Asn.OBut”, the step yield came to 85%.

In turn, “Z.Gln(Mbh)-Ala-Lys(BOC)-Ser(But)-Gln(Mbh)-Gly-Gly-Ser(But)-Asn.OBut” registered a step yield of 50%.

Take “Z.Lys(BOC)-Ser(But)-Gln(Mbh)-Gly-Gly-Ser(But)-Asn.OBut”: the step yield is 90%.

Regarding Z.Lys(BOC)-Ser(But)-Gln-Gly-Gly.OMe, the step yield stood at 75%.

As to “Z.Ser(But)-Gln(Mbh)-Gly-Gly-Ser(But)-Asn.OBut”, the step yield is 87%.

As for Z.Ser(But)-Gln(Mbh)-Gly-Gly.OMe, the step yield came out at 85%.

Consider Z.Ser(But)-Gln-Gly-Gly.OMe, for which the step yield was 75%.

Staying with this series, now noted: late stage modification step, acetate.
For “Ala-Lys(BOC)-Ser(But)-Gln(Pbh)-Gly-Gly-Ser(But)-Asn.OBut”, the step yield is 90%.

“Lys(BOC)-Ser(But)-Gln(Mbh)-Gly-Gly-Ser(But)-Asn.OBut” came in with a step yield of 90%.

With PEPTIDE1{[pE].A.K.S.Q.G.G.S.N}$$$$V2.0, the step yield result is “from 80 to 90%”.

The substance “Ser(But)-Gln(Mbh)-Gly-Gly-Ser(But)-Asn.OBut” yielded a step yield of 90%.

On to Z.Ser(But)-Gln(Mbh)-Gly-Gly.OH, for which the step yield is 85%.

The values are drawn from patent US4301065A (Agence Nationale de Valorisation de la Recherche (ANVAR), priority 1977, dated 1981).
